# In PubChem BioAssay AID1508600 (Functional Genomics Laboratory (NCATS/FGL), 2020):
# Out of some 53,000 sequences screened, about 3,700 (7%) were called active.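 How the source made its calls: active means gene knockdowns whose robust z-score for IL-1 alpha signal is at least 2 or at most -2, so actives lie on both sides; inactive means the rest.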 The list shows a part of the results.
# Assay: Components of the Cytosolic LPS Sensing Pathway: Gene Identification via Genome-wide siRNA Screen;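 further: robust z of the log signal after scaling to non-targeting control siRNA wells of the plate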
# Conditions: RAW264.7 macrophages, IL-1a HTRF, actives lie on both sides, screened at 100 nM (by protocol), cells primed 5 h with Pam3CSK4 first
# Summary of the method: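 RAW264.7; siRNA 100 nM final, RNAiMAX, 48h 37 degrees C; Pam3CSK4 5 h; LipidA + TransIT-TKO 24 h; IL-1a HTRF; CellTiter-Glo viability; robust z vs negative-control median.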
row,Sequence,z-score
1,GGACAGAGGCCACAGAGAATT against Hrc,inactive: -1.45
2,GGAGGAUGAGCAAGACAACTT against Lbh,inactive: -0.406
3,CGAUGACGGGAAAUAAUUUTT against Snx4,inactive: -0.663
4,GGCCAGUUGCUCAAAUUAUTT against Olfr460,inactive: 0.094
5,GCCCUUUGACAAUUUGUUUTT against Stra6l,inactive: -0.661
6,GCGUGUUCGCUUCUUGCUATT against Trub2,inactive: -0.614
7,GGAUGCUAGACUAAUACUATT against Slc25a32,inactive: 1.3
8,GGAUGUUAACAUUGAGCAATT against Asb11,inactive: -0.0828
9,GCCACUGGUUCCAAUCGUCTT against Ncs1,inactive: -0.354
10,GCAACCUCUUCAGCUUACATT against Fjx1,inactive: 0.195
11,CCAUACCCACUUACUGAAGTT against Galntl6,inactive: -0.474
12,GGAAGACUUGAAUUCUCUGTT against Tex101,inactive: -1.95
13,CGAUAUGAAGCGAAAUAUCTT against Pmpca,inactive: 0.528
14,GGCAAAGCAACAAUAUCUATT against Cct7,inactive: -0.809
15,GGACAAUGUGGUGCUGUCCTT against Slc34a3,inactive: 0.492
16,GGUGCAUUAUCUUGGUUCGTT against Hmga2,active: -2.46
17,GAUACCAAGCUAAAAGAUCTT against Ear10,inactive: 0.0579
18,GGACUUGAGAAAAAUGUUATT against Gatad1,inactive: -1.21
19,GGUAGUAGUAAGCCAUAAATT against Exoc8,inactive: 0.736
20,GGCAACAUUGAUCAAGUGGTT against Ecsit,inactive: 1.41
21,GGCCUGCCGGAGAUAAAGATT against Tex43,inactive: -0.759
22,CCACCUUUACGAUAAUGAUTT against Larp1b,inactive: -0.879
23,UGCAAAGGGAAUUGUGCUGTT against Rps23,inactive: -0.154

row,Sequence,z-score
1,GCCGACAACACAAAAUUAUTT against Vps26b,inactive: 0.4
2,CCUAAAUUUCCAACAGUCCTT against Tmem81,active: 2.05
3,GCAACAGUGCUUUAGAUUCTT against Gpr141,inactive: -0.531
4,CGGACACAUGAUUGUCUUCTT against Npas1,inactive: 1.25
5,CCAGGAUUUUCUUACACGGTT against Cyct,inactive: -0.469
6,GGUGUCACCUUGUUACAACTT against Arrdc4,inactive: 0.579
7,CCAACUGUAGAUGUAUAUATT against Pmp22,inactive: 0.654
8,CCAGAUUUAGGUUUCUUUCTT against Chmp5,inactive: -0.391
9,GCCGGAUGCAGGUUAUUAUTT against Wdr33,inactive: 1.46
10,GGUGUCACCACUUAUGUUGTT against Cyp2b9,inactive: -0.582
11,GGAUUUAGAAGUGUUAAAGTT against Pdlim1,inactive: 0.581
12,GGAUCUGGAUACUUUUCCATT against Arhgap22,active: -2.09
13,CCUGCAUCAGGACUAUUGGTT against Fndc4,inactive: -0.206
14,GCGGAGCCAUAAUGAAUAATT against Rev3l,inactive: 0.838
15,GGUGAAGCACUUUUGUCCCTT against Rhoc,inactive: 0.458
16,GGAAGUGUUCCGUUUUGCUTT against Aph1a,inactive: 0.597
17,CGUACCAUGUAAAUUCUAUTT against Impa1,inactive: 0.843
18,CCUCCAGUGCUUUUGUAUATT against Olfr1437,inactive: -1.17
19,GCUCUAUAGUGACCAAUGUTT against Gcgr,inactive: -0.072
20,CGACAGCUACUACGUGGAUTT against Zfp366,inactive: 1.05
21,CCUAGGGCUUGUGGUACUATT against Olfr1323,inactive: -0.539
22,GGCACUUCCUCCCUCAACATT against 4833420G17Rik,inactive: -0.57
23,CCAAGCUUGUAGCUCAAGCTT against Cct8l1,inactive: 0.195

row,Sequence,z-score
1,GGAGCAAGAAAAUGUUCCATT against Akr1b7,inactive: 0.0354
2,CCUCUACUCAGGAAAUAAGTT against Ippk,inactive: -0.836
3,GCAAGACCAAAAUUCGAACTT against Mat2b,inactive: 0.0853
4,GCACCAUGAAUUCUAUUGCTT against Kcnmb1,inactive: -0.24
5,CGCAUGAUGUGGGUUCUGUTT against Tmem41a,inactive: 0.802
6,GGACCAGGUUCACUUCCCUTT against Ovol1,inactive: -1.95
7,GGAGGCAUUCGCAUAGACGTT against Tra2a,inactive: 1.68
8,GCUGAGUUUUGUGGUAGACTT against Olfr1310,inactive: 0.225
9,GGCGUACAACAAAAAGCGGTT against Zfp697,inactive: 0.94
10,GGCAGACAUUAAAUAUACUTT against Pax1,inactive: -0.759
11,GGACAGUGUUUACAAACUUTT against Fbxw7,inactive: -0.664
12,CCCAUAAAGGAUCUGACAGTT against Casp7,inactive: 0.164
13,CCACUGCACUGUAAAUCAATT against Glrx5,inactive: -1.41
14,CCUUCCUAGAGUAAUCAAATT against Olfr1289,inactive: 1.41
15,CCCGGUUAGCCUUUGAUUGTT against Lamc3,inactive: 0.576
16,GGCUACAAGGUUCGCUAUGTT against Fgfr1,inactive: 0.0562
17,GGAGAAGAGAAUCAACUGCTT against Pou2f3,inactive: 0.0442
18,GGACAAGUCCGAGAAGACATT against Glo1,inactive: 1.98
19,CCACAUCCCGAGUAUACAUTT against Tssk4,inactive: -1.34
20,GGCCAAGAAGAGAAAAACATT against Ccne2,inactive: -1.54
21,GGAUCAAACACAAUCCUAATT against Vmn1r171,inactive: -1.13
22,GGAAAAUGGGUCAAAUUUGTT against Nudt5,inactive: -0.51

# Quoted at random: 4 records from the list
row,Sequence,z-score
3,GCAAGACCAAAAUUCGAACTT against Mat2b,inactive: 0.0853
7,GGAGGCAUUCGCAUAGACGTT against Tra2a,inactive: 1.68
1,GCCGACAACACAAAAUUAUTT against Vps26b,inactive: 0.4
3,CGAUGACGGGAAAUAAUUUTT against Snx4,inactive: -0.663
